The values that follow come from paper PMC9170289.

Chains of the proteins cited; added tags and fusions are not shown. Lines headed by an entry give the natural chain unless they say otherwise; changes in a name come on top.
UniProt P53550: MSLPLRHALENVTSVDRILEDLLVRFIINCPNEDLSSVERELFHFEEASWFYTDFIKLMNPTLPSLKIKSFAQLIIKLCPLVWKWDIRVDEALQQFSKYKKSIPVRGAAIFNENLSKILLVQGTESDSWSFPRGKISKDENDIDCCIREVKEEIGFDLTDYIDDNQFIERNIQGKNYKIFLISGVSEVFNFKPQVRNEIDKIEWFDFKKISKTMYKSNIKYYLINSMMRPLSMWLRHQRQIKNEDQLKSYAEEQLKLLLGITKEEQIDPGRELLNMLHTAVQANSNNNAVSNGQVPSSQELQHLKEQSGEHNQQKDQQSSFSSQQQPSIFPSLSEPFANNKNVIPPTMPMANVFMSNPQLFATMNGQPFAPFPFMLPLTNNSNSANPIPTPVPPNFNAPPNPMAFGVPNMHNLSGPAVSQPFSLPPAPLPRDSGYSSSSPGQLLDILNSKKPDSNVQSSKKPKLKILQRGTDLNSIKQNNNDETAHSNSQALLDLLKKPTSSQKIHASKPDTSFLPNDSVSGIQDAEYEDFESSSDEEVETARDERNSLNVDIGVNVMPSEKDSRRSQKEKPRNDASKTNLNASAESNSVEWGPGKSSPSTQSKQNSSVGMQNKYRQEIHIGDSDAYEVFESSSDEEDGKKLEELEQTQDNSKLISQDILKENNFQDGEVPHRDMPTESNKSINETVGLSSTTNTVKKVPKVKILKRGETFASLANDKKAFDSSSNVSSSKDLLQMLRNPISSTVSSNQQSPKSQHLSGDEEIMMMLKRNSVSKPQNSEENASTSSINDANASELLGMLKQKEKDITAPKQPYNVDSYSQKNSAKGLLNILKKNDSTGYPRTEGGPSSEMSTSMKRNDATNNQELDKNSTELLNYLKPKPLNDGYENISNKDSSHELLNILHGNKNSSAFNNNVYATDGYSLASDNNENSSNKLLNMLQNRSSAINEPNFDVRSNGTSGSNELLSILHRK

These are yes or no findings as the source states them, for the method shown. For some assays here: Binding can be weak; no strength is given.

Holding throughout (assay): two-hybrid; GAL4(DB) fusion and GAL4(AD) fusion cotransformed into the wild-type tester strain GGY1::171; X-Gal colony colour on SSX plates, 30°C; pairs said to be unaffected were also tested in upf1Δ, pat1Δ, scd6Δ, edc3Δ or dcp2-N245 derivatives
Test [1] has as its target Dcp2 LD1-4 (leucine-rich motifs L1 to L4 deleted) (S. cerevisiae) (UniProt P53550).
Test [2] concerns the target Dcp2 E3D (Edc3-binding motif E3 deleted) (S. cerevisiae) (UniProt P53550).
The target of test [3] is Dcp2 ID (inhibitory element IE deleted) (S. cerevisiae) (UniProt P53550).
In test [4] the target is Dcp2 LD9-4 (leucine-rich motifs L9 to L4 deleted) (S. cerevisiae) (UniProt P53550).
The target in test [5] is Dcp2 U1D1-U1D2 (both Upf1-binding motifs deleted) (S. cerevisiae) (UniProt P53550).
Test [6] addresses Dcp2 E3D-LD9-2 (S. cerevisiae) (UniProt P53550).
For test [7], the target named is Dcp2 LD9-3 (leucine-rich motifs L9 to L3 deleted) (S. cerevisiae) (UniProt P53550).
Test [8] concerns the target Dcp2 LD9-6 (leucine-rich motifs L9 to L6 deleted) (S. cerevisiae) (UniProt P53550).
Test [9] deals with Dcp2 E3D1-LD9-3 (S. cerevisiae) (UniProt P53550).
In test [10] the target is Dcp2 E3D-LD9-3 (S. cerevisiae) (UniProt P53550).
Test [11] deals with Dcp2 E3D1-LD9-2 (S. cerevisiae) (UniProt P53550).

B1: Pat1 (protein, UniProt P25644 1-796)
chain: MSFFGLENSGNARDGPLDFEESYKGYGEHELEENDYLNDETFGDNVQVGTDFDFGNPHSSGSSGNAIGGNGVGATARSYVAATAEGISGPRTDGTAAAGPLDLKPMESLWSTAPPPAMAPSPQSTMAPAPAPQQMAPLQPILSMQDLERQQRQMQQQFMNFHAMGHPQGLPQGPPQQQFPMQPASGQPGPSQFAPPPPPPGVNVNMNQMPMGPVQVPVQASPSPIGMSNTPSPGPVVGATKMPLQSGRRSKRDLSPEEQRRLQIRHAKVEKILKYSGLMTPRDKDFITRYQLSQIVTEDPYNEDFYFQVYKIIQRGGITSESNKGLIARAYLEHSGHRLGGRYKRTDIALQRMQSQVEKAVTVAKERPSKLKDQQAAAGNSSQDNKQANTVLGKISSTLNSKNPRRQLQIPRQQPSDPDALKDVTDSLTNVDLASSGSSSTGSSAAAVASKQRRRSSYAFNNGNGATNLNKSGGKKFILELIETVYEEILDLEANLRNGQQTDSTAMWEALHIDDSSYDVNPFISMLSFDKGIKIMPRIFNFLDKQQKLKILQKIFNELSHLQIIILSSYKTTPKPTLTQLKKVDLFQMIILKIIVSFLSNNSNFIEIMGLLLQLIRNNNVSFLTTSKIGLNLITILISRAALIKQDSSRSNILSSPEISTWNEIYDKLFTSLESKIQLIFPPREYNDHIMRLQNDKFMDEAYIWQFLASLALSGKLNHQRIIIDEVRDEIFATINEAETLQKKEKELSVLPQRSQELDTELKSIIYNKEKLYQDLNLFLNVMGLVYRDGEISELK
Regarding B1, the binding entry in [1] is reported as “binds”; in test [2] it was “binds”; in [3], “binds”; in [4] it was “binds weakly”; in [5], “binds”; in test [6], “no binding”. For the same molecule, the binding entry in [7] is reported as “binds weakly”; in [8], “binds”; in test [9], “binds weakly”; in test [10], “binds weakly”; in [11], “no binding”.
